The values below come from article PMC9509598.

Chains of the proteins cited; added tags and fusions are not shown. Lines headed by an entry give the natural chain unless they say otherwise; changes in a name come on top. Residues count along the entry.
UniProt Q6ZW49: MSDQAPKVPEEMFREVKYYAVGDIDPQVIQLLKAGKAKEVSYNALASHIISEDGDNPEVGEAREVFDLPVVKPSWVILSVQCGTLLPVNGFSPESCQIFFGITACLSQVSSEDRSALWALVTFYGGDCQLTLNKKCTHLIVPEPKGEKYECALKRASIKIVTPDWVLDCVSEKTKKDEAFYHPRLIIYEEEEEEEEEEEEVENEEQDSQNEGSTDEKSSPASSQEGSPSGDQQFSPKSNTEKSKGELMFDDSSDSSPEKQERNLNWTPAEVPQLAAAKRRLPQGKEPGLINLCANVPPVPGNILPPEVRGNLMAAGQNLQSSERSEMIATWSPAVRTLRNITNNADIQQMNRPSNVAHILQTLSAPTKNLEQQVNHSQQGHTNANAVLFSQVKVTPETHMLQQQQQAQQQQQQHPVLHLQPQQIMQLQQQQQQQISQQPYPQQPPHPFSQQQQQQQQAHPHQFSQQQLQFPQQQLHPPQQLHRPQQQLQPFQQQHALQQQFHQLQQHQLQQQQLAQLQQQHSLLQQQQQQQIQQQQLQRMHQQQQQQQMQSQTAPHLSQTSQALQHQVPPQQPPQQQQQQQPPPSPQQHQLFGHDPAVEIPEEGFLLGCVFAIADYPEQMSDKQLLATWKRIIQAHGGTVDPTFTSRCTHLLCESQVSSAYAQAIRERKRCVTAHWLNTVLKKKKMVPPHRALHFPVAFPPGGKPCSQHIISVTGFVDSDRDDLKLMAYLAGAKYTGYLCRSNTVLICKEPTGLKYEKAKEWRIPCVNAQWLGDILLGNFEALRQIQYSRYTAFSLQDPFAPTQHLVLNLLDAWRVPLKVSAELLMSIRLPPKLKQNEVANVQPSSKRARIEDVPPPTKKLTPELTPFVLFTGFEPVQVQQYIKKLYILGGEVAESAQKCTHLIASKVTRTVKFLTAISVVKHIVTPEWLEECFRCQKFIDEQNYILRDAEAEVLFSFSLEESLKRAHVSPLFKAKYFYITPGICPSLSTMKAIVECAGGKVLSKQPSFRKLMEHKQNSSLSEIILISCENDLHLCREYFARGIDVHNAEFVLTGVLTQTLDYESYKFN
Myc-PTIP-NM (codon 1–796): residues 1-796 of Q6ZW49
Myc-PTIP-MC (codon 391–1069): residues 391-1069 of Q6ZW49

No constants are given. Whether binding was seen depends on the method and setting. For part of these data: Binding seen in cells or lysates may run through a third protein. Some entries that bind do so weakly or less than the wild type. For part of these data: Sequences can lack the tags named with a protein.

Experiment [1] concerns the target T1, Mps1 N-terminus (codon 1–517) (UniProt P33981).
T1 sequence: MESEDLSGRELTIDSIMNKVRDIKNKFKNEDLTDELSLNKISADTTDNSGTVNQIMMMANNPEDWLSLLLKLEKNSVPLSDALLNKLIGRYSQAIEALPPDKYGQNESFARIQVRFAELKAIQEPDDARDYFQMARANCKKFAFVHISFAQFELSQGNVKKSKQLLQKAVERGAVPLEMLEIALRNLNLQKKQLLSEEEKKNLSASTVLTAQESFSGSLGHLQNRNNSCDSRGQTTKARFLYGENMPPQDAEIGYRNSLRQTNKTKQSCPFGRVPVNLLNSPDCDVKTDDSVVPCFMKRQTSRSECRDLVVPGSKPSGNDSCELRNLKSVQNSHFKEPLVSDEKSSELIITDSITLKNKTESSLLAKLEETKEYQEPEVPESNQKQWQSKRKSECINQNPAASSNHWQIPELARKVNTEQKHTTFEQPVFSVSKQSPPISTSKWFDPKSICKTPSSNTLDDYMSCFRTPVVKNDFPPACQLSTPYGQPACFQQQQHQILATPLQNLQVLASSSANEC
Put plainly: two-hybrid; two-hybrid screen of Mps1 N-terminus (codon 1-517); not published.

Experiment [2] addresses Myc-PTIP-MC (codon 391–1069) (UniProt Q6ZW49). Put plainly: co-IP; HeLa Tet-on cells cotransfected with HA-Mps1 and Myc-PTIP truncations for 24 h, arrested in M phase with nocodazole; lysis buffer 25 mM Tris-HCl pH 7.4, 150 mM NaCl, 1% NP-40, 1 mM EDTA, 5% glycerol; anti-c-Myc magnetic beads, 4 °C, 2 h; Western blot. A general note: A western blot detects proteins with antibodies after separation by electrophoresis.

For experiment [3], the target named is Myc-PTIP-NM (codon 1–796) (UniProt Q6ZW49). The description is as above.

Take “truncated PTIP (codon 423–1069) (from UniProt Q6ZW49 423-1069) (domain or fragment)”: in experiment [1], the binding entry is reported as “binds”.

B1: HA-Mps1 (protein, UniProt P33981 1-857)
chain: MESEDLSGRELTIDSIMNKVRDIKNKFKNEDLTDELSLNKISADTTDNSGTVNQIMMMANNPEDWLSLLLKLEKNSVPLSDALLNKLIGRYSQAIEALPPDKYGQNESFARIQVRFAELKAIQEPDDARDYFQMARANCKKFAFVHISFAQFELSQGNVKKSKQLLQKAVERGAVPLEMLEIALRNLNLQKKQLLSEEEKKNLSASTVLTAQESFSGSLGHLQNRNNSCDSRGQTTKARFLYGENMPPQDAEIGYRNSLRQTNKTKQSCPFGRVPVNLLNSPDCDVKTDDSVVPCFMKRQTSRSECRDLVVPGSKPSGNDSCELRNLKSVQNSHFKEPLVSDEKSSELIITDSITLKNKTESSLLAKLEETKEYQEPEVPESNQKQWQSKRKSECINQNPAASSNHWQIPELARKVNTEQKHTTFEQPVFSVSKQSPPISTSKWFDPKSICKTPSSNTLDDYMSCFRTPVVKNDFPPACQLSTPYGQPACFQQQQHQILATPLQNLQVLASSSANECISVKGRIYSILKQIGSGGSSKVFQVLNEKKQIYAIKYVNLEEADNQTLDSYRNEIAYLNKLQQHSDKIIRLYDYEITDQYIYMVMECGNIDLNSWLKKKKSIDPWERKSYWKNMLEAVHTIHQHGIVHSDLKPANFLIVDGMLKLIDFGIANQMQPDTTSVVKDSQVGTVNYMPPEAIKDMSSSRENGKSKSKISPKSDVWSLGCILYYMTYGKTPFQQIINQISKLHAIIDPNHEIEFPDIPEKDLQDVLKCCLKRDPKQRISIPELLAHPYVQIQTHPVNQMAKGTTEEMKYVLGQLVGLNSPNSILKAAKTLYEHYSGGESHNSSSSKTFEKKRGKK
With B1, the binding result in experiment [2] and in experiment [3] was “binds” each time.
